This note sets out measurements from patent US20240199759A1.

Results are given in words; binding and its absence hold for the method and conditions named. Some results given as binding are weak or reduced against the parent protein; the word gives no strength. Where a sequence is shown, tags or fusion partners need not be part of it.

For the assay, the target named is T1, NKp46 domain I fused to Ig (D1-Ig) (human), O76036.
T1 chain: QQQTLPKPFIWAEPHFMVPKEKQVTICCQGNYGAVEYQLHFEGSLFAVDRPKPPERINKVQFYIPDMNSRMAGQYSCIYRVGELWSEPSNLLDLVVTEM
In words: BIAcore. Conditions: remark: other sources report otherwise. (In general: SPR reads the build-up and loss of mass on a sensor chip optically.)

B1: mouse anti-NKp46 monoclonal antibody 09 (antibody, V domains shown)
VH: EVQLQQSGPELVKPGTSVKISCKTSGYTFTEYSMHWVKQSHGKSLEWFGGISPNSGGTSYNQKFKGKATLTVDKSSSTAYMELRSLTSEDSAVYYCARRDFHSSFDYWGQGTTLTVSS
VL: DIVMTQSPATLSVTPGDRVSLSCRASQSISDYLHWFQQKSHESPRLLIKYASQSISGIPSRFSGSGSGSDFTLSINSVEPEDVGVYYCQNGHSFPLTFGPGTKLELK
Turning to B1, the binding entry is reported as “binds”.
